PubChem BioAssay AID743121, NCATS – 2013

Purpose: 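Genes whose silencing strengthens cell killing by camptothecin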 (primary screen)
Cell system: MDA-MB-231 cells, a human breast cancer line
Knock-down reagent: single siRNA against human genes, 20 nM siRNA (0.8 pmol per well)
Duration: 120 h (drug added 48 h after transfection, read 72 h later)
Challenge: camptothecin 20 nM (about EC30) for 72 h; vehicle 0.1% DMSO in parallel plates
Measurement: 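Cell viability by ATP luminescence (CellTiter-Glo) as % of non-targeting siRNA wells, and the log2 ratio of viability without drug over viability with camptothecin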
Reading the numbers: log2 vehicle/camptothecin viability: higher = stronger sensitisation to camptothecin
Call rule: 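Each gene scored by redundant siRNA activity (RSA) over its individual siRNA ratios; a gene is called active at p < 0.001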
This is one part, drawn at random, of about 26,000 reagents. 167 of them (0.63%) count as active. 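Calls are per gene from RSA p-values that are not deposited; an individual active-marked siRNA can sensitise only weakly.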 A number with no mark means an inactive call. Reagents against one gene are numbered here. Not all columns of the deposit are shown. Reagent sequences are not shown.

With RFFL #1, how do the results read?
log2 vehicle/camptothecin viability: -0.429

How did the screen score RFFL #2?
log2 vehicle/camptothecin viability: -0.296

What did the screen give for RFFL #3?
log2 vehicle/camptothecin viability: 0.123

How did the screen score RFFL #4?
log2 vehicle/camptothecin viability: 0.347

With DIO1 #1, what was measured?
log2 vehicle/camptothecin viability: -0.234

For DIO1 #2, what does the deposit list?
log2 vehicle/camptothecin viability: 0.328

Which result is listed for DIO1 #3?
log2 vehicle/camptothecin viability: 0.133

How did the screen score DIO1 #4?
log2 vehicle/camptothecin viability: 0.196

Targets above whose gene name begins with D or d (4):
DIO1 #1: log2 vehicle/camptothecin viability = -0.234
DIO1 #2: log2 vehicle/camptothecin viability = 0.328
DIO1 #3: log2 vehicle/camptothecin viability = 0.133
DIO1 #4: log2 vehicle/camptothecin viability = 0.196

The listing continues:
For MTOR #1, how do the results read?
log2 vehicle/camptothecin viability: -0.388

Which result is listed for MTOR #2?
log2 vehicle/camptothecin viability: -0.325

For MTOR #3, what was measured?
log2 vehicle/camptothecin viability: -0.411

How did the screen score MTOR #4?
log2 vehicle/camptothecin viability: -0.525

For MTOR #5, what was measured?
log2 vehicle/camptothecin viability: -0.388

With MTOR #6, how do the results read?
log2 vehicle/camptothecin viability: -0.315
